Assay results published in patent US20160273042A1, “GENETIC MARKERS OF ANTIPSYCHOTIC RESPONSE” (SUREGENE, LLC, priority 2013, published 2016).
Entries after “also recorded” stand apart in the source; their conditions may differ. At least one structure is not confirmed: it was looked up by name or label, or the drawing left a doubt.

Columns and labels:
[1] = tested on: psychotic symptoms (PANSS); conditions: difference in mean response drug minus placebo arm, divided by standard deviation; negative = greater reduction in PANSS; cited from earlier work
[2] = tested on: patients of the CATIE study (schizophrenia); assay: CATIE trial: change in PANSS score (delta PANSS, LOCF) for subjects stratified by GARP genetic signature status; assay type: in vivo, human; conditions: for response in GARP-1 positive subjects, in words: compared with GARP-1 negative subjects or with other drugs
Protocol: The CATIE study, a large federally funded clinical trial designed to assess the efficacy of antipsychotics in a real world setting, is a valuable resource for determining the role of genes in baseline psychopathology and drug response (Lieberman et al., 2005; Stroup et al., 2003). […] Additionally, whole genome SNP genotyping was performed for roughly half of the trial participants (Sullivan et al., 2008).
Genotype and phenotype data for the CATIE trial were recently made available to qualified researchers through the NIMH Center for Collaborative Genetic Studies on Mental Disorders. The sample consisted of a total of 738 patients. Further details on the patient population are described in the study by Sullivan and coworkers (Sullivan et al., 2008). The CATIE SNP genotype data evaluated included a total of 492,900 SNPs located throughout the genome.
The design of the CATIE study has been described in detail by others (Lieberman et al., 2005; Stroup et al., 2003). […] Subjects that failed Phase 1 treatment with the typical antipsychotic perphenazine were treated differently than those subjects that failed phase I treatment with an atypical antipsychotic. Instead of entering into Phase II of the trial, subjects who switched from perphenazine entered Phase IB. […] Subjects who failed Phase IB then entered Phase II.
A total of 738 subjects consented to provide DNA for genetic study. […] Only retrospective genetic analyses, judged to be exempt from human studies requirements by an IRB, were conducted in the current study. For the genetic analyses presented herein, the inventors combined and evaluated drug response data for Phase IA, Phase IB, and Phase II of the CATIE study. All tested patients were studied using well established clinical endpoints comparing baseline, intermediate, and last observation carried forward (LOCF) for the PANSS scores using CATIE data. LOCF analysis is a commonly used clinical endpoint for clinical trials for neuropsychiatric drugs, with particular changes in PANSS scores being used to indicate clinically significant response (Leucht et al., 2009).
Using the clinical data from the CATIE trial, the inventors derived several different metrics used for quantifying response in clinical trials of antipsychotic medications. The most commonly used psychometric instrument is the Positive and Negative Syndrome Scale (PANSS), a 30-item semi-quantitative instrument scored by clinical professionals (Kay et al., 1987). […]
As mentioned previously, the mean change in PANSS at LOCF provides an important measure of efficacy in patients undergoing antipsychotic treatments. […] Therefore, the inventors determined the impact of segmentation by GARP genetic signature status on the quantitative measure of clinical improvement—delta PANSS (for LOCF). […]

[3] = tested on: psychotic symptoms (PANSS); conditions: versus first generation antipsychotics; cited from earlier work

Cc1cc2c(s1)Nc1ccccc1N=C2N1CCN(C)CC1 [Olanzapine, olanzapine]
Effect Size vs. Placebo [1]: −0.59 | response in GARP-1 positive subjects, in words [2]: significant efficacy | response in GARP-1 positive subjects, in words ([2]; listed as olanzapine): enhanced response; also recorded: significantly better; also recorded: responded particularly well | response in GARP-2 positive subjects, in words ([2]; GARP-2 positive subjects, compared with GARP-2 negative subjects or with other drugs): superior efficacy; also recorded: lower response | response in GARP-4 positive subjects, in words ([2]; GARP-4 positive subjects, compared with GARP-4 negative subjects or with other drugs): second best response | Effect Size vs. FGA [3]: −0.21
